Source: patent US12233047B2, “Pharmaceutical combination and use thereof” (ASCENTAGE PHARMA (SUZHOU) CO., LTD., priority 2019, dated 2025)
At least one compound was matched to its structure with a doubt left.

Test system: FLT3 (ITD)
Assay: KINOMEscan kinase binding assay, FLT3 (ITD)

Cc1ccc(C(=O)Nc2ccc(CN3CCN(C)CC3)c(C(F)(F)F)c2)cc1C#Cc1cnc2[nH]ncc2c1 [Compound 23, 3-(2-(1H-pyrazolo[3,4-b]pyridin-5-yl)ethynyl)-4-methyl-N-(4-((4-methylpiperazin-1-yl)methyl)-3-(trifluoromethyl)phenyl)benzamide]
% Ctrl@10 nM (10 nM): 58 % Ctrl | % Ctrl@100 nM (100 nM): 2.9 % Ctrl
